In assay [1] the target is T1, Period2 (PER2), endogenous in U2OS cells (human (endogenous in U2OS)) (UniProt O15055).
T1 sequence: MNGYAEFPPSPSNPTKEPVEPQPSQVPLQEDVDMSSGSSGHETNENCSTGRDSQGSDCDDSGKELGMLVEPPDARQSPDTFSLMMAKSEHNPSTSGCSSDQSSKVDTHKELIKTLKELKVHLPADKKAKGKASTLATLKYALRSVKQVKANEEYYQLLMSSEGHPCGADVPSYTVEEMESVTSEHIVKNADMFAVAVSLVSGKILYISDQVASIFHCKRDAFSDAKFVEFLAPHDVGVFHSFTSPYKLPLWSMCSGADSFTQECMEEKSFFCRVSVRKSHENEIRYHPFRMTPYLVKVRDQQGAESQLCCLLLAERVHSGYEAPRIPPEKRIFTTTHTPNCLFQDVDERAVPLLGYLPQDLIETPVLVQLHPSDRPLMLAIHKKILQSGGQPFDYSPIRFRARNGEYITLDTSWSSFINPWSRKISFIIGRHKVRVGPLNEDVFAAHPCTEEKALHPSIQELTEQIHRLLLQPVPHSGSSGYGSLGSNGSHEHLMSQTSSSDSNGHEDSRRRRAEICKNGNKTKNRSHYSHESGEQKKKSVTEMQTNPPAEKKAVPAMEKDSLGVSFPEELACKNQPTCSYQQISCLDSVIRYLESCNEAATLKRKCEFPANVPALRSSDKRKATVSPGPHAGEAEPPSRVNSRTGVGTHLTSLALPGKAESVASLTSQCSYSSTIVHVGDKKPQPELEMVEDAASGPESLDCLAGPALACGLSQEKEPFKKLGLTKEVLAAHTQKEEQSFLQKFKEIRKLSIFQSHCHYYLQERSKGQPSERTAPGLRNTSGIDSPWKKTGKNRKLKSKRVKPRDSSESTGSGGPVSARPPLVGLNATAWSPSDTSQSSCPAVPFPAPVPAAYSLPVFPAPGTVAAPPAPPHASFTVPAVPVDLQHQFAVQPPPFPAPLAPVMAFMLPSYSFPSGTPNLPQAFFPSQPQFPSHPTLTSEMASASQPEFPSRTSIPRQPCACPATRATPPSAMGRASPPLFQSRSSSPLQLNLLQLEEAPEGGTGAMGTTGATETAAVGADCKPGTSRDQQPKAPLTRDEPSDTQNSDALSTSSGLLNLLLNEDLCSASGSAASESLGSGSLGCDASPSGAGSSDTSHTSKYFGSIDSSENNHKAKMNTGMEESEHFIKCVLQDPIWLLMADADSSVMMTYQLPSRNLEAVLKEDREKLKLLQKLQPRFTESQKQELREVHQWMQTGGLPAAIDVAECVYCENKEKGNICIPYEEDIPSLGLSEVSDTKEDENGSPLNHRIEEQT
Briefly: co-IP; endogenous proteins in U2OS cells transduced with shCtrl or shSUMO2 lentivirus; TNE lysis buffer (150 mM NaCl, 1% NP-40, MG132, NEM), antibody overnight at 4 °C, protein A/G agarose; normal IgG as IP control.

The chains behind the UniProt entries cited, without tags or fusion partners. Residues count along the entry.
UniProt Q00987: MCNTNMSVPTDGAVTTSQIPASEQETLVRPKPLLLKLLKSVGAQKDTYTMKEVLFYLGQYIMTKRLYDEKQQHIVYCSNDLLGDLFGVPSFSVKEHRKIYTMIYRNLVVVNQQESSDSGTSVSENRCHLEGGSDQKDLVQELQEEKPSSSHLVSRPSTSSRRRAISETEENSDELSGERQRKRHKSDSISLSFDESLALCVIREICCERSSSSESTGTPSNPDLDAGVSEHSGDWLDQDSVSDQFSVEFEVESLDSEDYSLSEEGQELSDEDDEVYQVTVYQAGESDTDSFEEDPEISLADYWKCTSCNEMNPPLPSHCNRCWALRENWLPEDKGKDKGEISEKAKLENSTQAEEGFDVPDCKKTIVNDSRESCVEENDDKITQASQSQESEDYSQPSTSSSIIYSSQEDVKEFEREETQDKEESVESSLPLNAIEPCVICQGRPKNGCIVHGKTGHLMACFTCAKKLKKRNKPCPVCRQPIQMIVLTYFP
UniProt P63165, residues 1-97: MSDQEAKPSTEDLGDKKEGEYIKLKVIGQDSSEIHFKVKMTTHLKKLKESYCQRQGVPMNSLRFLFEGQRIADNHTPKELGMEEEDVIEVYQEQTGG
UniProt Q9Y297: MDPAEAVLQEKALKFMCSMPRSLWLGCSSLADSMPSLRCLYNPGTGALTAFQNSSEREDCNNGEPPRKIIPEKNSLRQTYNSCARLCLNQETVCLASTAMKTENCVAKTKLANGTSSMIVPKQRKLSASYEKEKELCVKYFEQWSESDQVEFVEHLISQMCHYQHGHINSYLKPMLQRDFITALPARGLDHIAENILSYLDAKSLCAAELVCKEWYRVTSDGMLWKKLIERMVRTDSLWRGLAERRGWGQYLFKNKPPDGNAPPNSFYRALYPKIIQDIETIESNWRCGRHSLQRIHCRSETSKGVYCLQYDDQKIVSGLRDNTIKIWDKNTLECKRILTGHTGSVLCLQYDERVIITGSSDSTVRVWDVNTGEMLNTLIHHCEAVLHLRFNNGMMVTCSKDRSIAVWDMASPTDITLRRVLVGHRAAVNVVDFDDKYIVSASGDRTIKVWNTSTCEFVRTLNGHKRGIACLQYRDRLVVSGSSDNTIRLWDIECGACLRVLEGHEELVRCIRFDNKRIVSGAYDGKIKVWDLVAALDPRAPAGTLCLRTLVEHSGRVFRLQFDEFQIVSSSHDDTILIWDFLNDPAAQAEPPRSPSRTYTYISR

Assay [2] has as its target T1, Period2 (PER2), endogenous in U2OS cells (human (endogenous in U2OS)). The experiment in a line: proximity ligation; serum-synchronized U2OS cells (shCtrl, shSUMO1 or shSUMO2) fixed at CT 28; anti-PER2 and anti-SUMO1 antibodies against the endogenous proteins, Duolink PLA.
Assay [3] has as its target T2, FLAG-PER2^WT expressed in HEK-293 T cells (human) (UniProt O15055).
T2 sequence: T1 sequence
The experiment in a line: co-IP; HEK-293 T cells transfected with FLAG-PER2^WT or FLAG-PER2^K736R; lysates IP with indicated antibodies, immunoblot; normal IgG as IP control. A general note: In western blotting, separated proteins are transferred to a membrane and probed.

In assay [4] the target is T3, FLAG-PER2^K736R expressed in HEK-293 T cells (human) (UniProt O15055).
T3 sequence: T1 sequence with K736R
Described as above.

Residue numbers refer to the chain shown, from its start. Results are given in words; binding and its absence hold for the method and conditions named. In cells and extracts the contact can be indirect. Some binding calls cover weakened binding; strength is not graded here. For some assays here: Tags and fused reporters may be left off the sequences shown.

Regarding “MDM2, endogenous in U2OS cells (from UniProt Q00987 1-491)”, the binding entry in assay [1] was “binds”.
For the substance “SUMO1, endogenous in U2OS cells (from UniProt P63165 1-97)”, in assay [2], the binding entry is recorded as “binds”.
With “β-TrCP in HEK-293 T cells (from UniProt Q9Y297 1-605)”, the binding entry in assay [3] and in assay [4] was “binds” in each case.
In the case of “β-TrCP, full length isoform (68 kD), endogenous in U2OS cells (from UniProt Q9Y297 1-605)”, in assay [1], the binding result is on record as “binds”.

The values above are taken from publication PMC8277905.
